# Results from PMC7433896.
# The chains behind the UniProt entries cited, without tags or fusion partners. Residues count along the entry.
# UniProt O70174, residues 31-629: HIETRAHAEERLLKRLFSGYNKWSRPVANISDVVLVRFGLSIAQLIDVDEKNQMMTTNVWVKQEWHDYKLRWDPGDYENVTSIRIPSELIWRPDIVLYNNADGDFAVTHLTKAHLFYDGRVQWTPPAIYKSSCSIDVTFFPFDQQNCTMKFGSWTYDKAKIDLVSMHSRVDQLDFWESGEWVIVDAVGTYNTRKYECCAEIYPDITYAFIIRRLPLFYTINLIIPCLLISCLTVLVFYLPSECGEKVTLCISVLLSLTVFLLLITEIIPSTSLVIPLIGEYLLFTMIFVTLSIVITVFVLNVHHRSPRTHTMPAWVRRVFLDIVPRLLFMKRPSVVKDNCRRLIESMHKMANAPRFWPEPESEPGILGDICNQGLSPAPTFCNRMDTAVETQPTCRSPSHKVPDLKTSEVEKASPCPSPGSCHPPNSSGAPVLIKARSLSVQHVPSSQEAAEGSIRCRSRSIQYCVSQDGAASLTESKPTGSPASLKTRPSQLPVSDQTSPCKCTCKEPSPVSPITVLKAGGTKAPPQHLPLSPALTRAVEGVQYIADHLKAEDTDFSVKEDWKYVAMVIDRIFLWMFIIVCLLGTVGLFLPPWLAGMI
# Results are given in words; binding and its absence hold for the method and conditions named. In cells and extracts the contact can be indirect. Some binding calls cover weakened binding; strength is not graded here.
# Experiments:
# [1] = target: α4-mCherry nAChR subunit (cDNA plasmid, neuro-2a cells) (UniProt O70174); assay: FRET or BRET; pixel-based NFRET by confocal microscopy of neuro-2a cells transiently transfected with the tagged subunits and β2wt; control medium or 0.5 μM farnesene for 24 h
# [2] = target: α4-mCherry nAChR subunit (α4-mCherry knock-in mice) (mouse) (UniProt O70174); assay: FRET or BRET; pixel-based normalized FRET (NFRET, PixFRET ImageJ plug-in) by confocal microscopy of 20 μm coronal brain sections of α4-mCherryα6-GFP mice, VTA dopamine neurons; mice treated with saline or 0.1 mg/kg farnesene
Substance,binding [1],binding [2]
"α4-mCherry nAChR subunit (cDNA plasmid, neuro-2a cells) (from UniProt O70174 31-629)",binds,
"α6-GFP nAChR subunit (cDNA plasmid, neuro-2a cells) (from UniProt Q9R0W9 31-494)",binds,
α6-GFP nAChR subunit (α6-GFP BAC transgenic mice) (from UniProt Q9R0W9 31-494),,binds
